{"source": "PubChem BioAssay AID504467", "about": "(National Center for Advancing Translational Sciences (NCATS), 2011)", "note": "Screen size: about 330,000 compounds; about 7,700 (2.3%) were called active. Inconclusive results, whose numbers are uncertain, are shown with a selection of clear calls. Calls follow the shape of the dose curve; as a rule, active = well fitted inhibition curve with a large enough effect; inconclusive = small, poorly fitted or top-dose-only effect, or effect the other way; inactive = flat fitted curve, though single readings scatter. Where the call is inconclusive, the potency comes from a doubtful curve fit. % is scaled to controls: 0 for no effect and ±100 for the full control effect; potency is read from the fitted curve at half-maximal effect.", "data": [{"test": "qHTS screen for small molecules that inhibit ELG1-dependent DNA repair in human embryonic kidney (HEK293T) cells expressing luciferase-tagged ELG1; also: nearly all actives have a fitted effect of over 55% in size", "settings": "HEK293T ELG1-luciferase reporter, luminescence, 16 h, DNA damage induced by 5-fluorouridine; activity change, negative = inhibition: at 46.1 µM (top of the series)", "how_it_was_run": "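HEK293T cells expressing luciferase-tagged ELG1 (2,000/well) received 5-Fluorouridine plus compound or DMSO for 16 hr at 37 °C. Luciferase was read by ONE-Glo luminescence after 30 min at room temperature.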", "values": [{"compound": "Cn1c(=NC(=O)C2CC2)sc2cc(F)cc(F)c21", "Potency": "inconclusive: 18.4 µM [activator, single point]"}, {"compound": "CCC(C)[C@H]1CNCCN1CCC12CC3CC(CC(C3)C1)C2", "note": "(stereo partly specified)", "Potency": "inconclusive: 32.6 µM [activator, single point]"}, {"compound": "CCC(=O)c1ccc(CCCCCC(=O)O)s1", "Potency": "inconclusive: 8.2 µM [activator, partial curve]"}, {"compound": "O=C(Nc1cccc(F)c1)c1ccc(S(=O)(=O)N2CCCCC2)cc1", "Potency": "inconclusive: 18.3 µM [inhibitor, single point]"}, {"compound": "Fc1ccc(-c2cc(C(F)(F)F)nc(NCC3CCCO3)n2)cc1", "note": "(stereo unspecified)", "Potency": "inconclusive: 23.1 µM [inhibitor, single point]"}, {"compound": "COc1ccc(/C=N/Nc2nc(C)c([N+](=O)[O-])c(N(C)c3ccccc3)n2)cc1OC", "activity change, negative = inhibition": "inactive: 17.7%"}, {"compound": "C/C(=N\\NC(=O)CSCc1ccc([N+](=O)[O-])cc1)c1cccc(Br)c1", "Potency": "inconclusive: 23.1 µM [inhibitor, single point]"}, {"compound": "Cc1nn2c(NCCN3CCOCC3)c3c(nc2c1-c1ccccc1)CCCC3", "Potency": "active: 16.4 µM"}, {"compound": "CCCSC1=N/C(=C/c2ccsc2)C(=O)N1c1ccccc1", "activity change, negative = inhibition": "inactive: -25.8%"}, {"compound": "Cc1ccc(/C=N/NC(=O)c2cccs2)cc1[N+](=O)[O-]", "Potency": "inconclusive: 16.4 µM [activator, partial curve]"}, {"compound": "O=C(NCCN1CCOCC1)c1ccccc1Cl", "activity change, negative = inhibition": "inactive: 13.2%"}, {"compound": "CCn1c(SCc2cccc(C)c2)nnc1-c1ccc(C)cc1", "activity change, negative = inhibition": "inactive: -5.39%"}, {"compound": "Cc1ccccc1-n1c(SCC(=O)N/N=C/c2c(C)nn(-c3ccccc3)c2C)nc2ccccc2c1=O", "Potency": "inconclusive: 20.6 µM [inhibitor, single point]"}, {"compound": "Cc1cccc(N=Nc2c(N)n[nH]c2-c2ccc(Cl)cc2)c1", "activity change, negative = inhibition": "inactive: -1.96%"}, {"compound": "CCOC(=O)C1=C(C)NC(C)=C(C(=O)OCC)C1C(=O)OCC(=O)N1c2ccccc2CC1C", "note": "(stereo unspecified)", "Potency": "active: 23.1 µM"}, {"compound": "Cc1oc2c(O)c(O)ccc2c(=O)c1-c1cnn(-c2ccccc2)c1", "Potency": "inconclusive: 0.13 µM [activator, single point]"}, {"compound": "Cc1cccc(N=Nc2cnc(N)s2)c1", "Potency": "inconclusive: 14.6 µM [activator, partial curve]"}, {"compound": "CCOc1ccc(-n2c(SCC(=O)NC(C)CC)nc3n[nH]c(C)c3c2=N)cc1", "note": "(stereo unspecified)", "activity change, negative = inhibition": "inactive: 26.9%"}, {"compound": "CN(C)CCCCOc1ccc(Br)cc1Cl", "activity change, negative = inhibition": "inactive: -3.35%"}, {"compound": "O=[N+]([O-])c1cc2c(cc1CN1CCN(c3ccccc3)CC1)OCO2", "Potency": "inconclusive: 0.708 µM [activator, single point]"}, {"compound": "N#C/C(=C\\c1cccc(O)c1)C(=O)Nc1ccc2c(c1)OCCO2", "Potency": "inconclusive: 23.1 µM [activator, single point]"}, {"compound": "CCOC(=O)C1=C(COC(=O)CNC(=O)c2ccc(C(C)(C)C)cc2)NC(=O)NC1C", "note": "(stereo unspecified)", "Potency": "inconclusive: 14.6 µM [activator, partial curve]"}, {"compound": "CN(C(=O)COC(=O)CNC(=O)C1CCCCC1)c1ccccc1", "activity change, negative = inhibition": "inactive: 0%"}, {"compound": "CCCCC(=O)NC1(C(F)(F)F)C(=O)Nc2c1c(=O)[nH]c(=O)n2Cc1ccco1", "note": "(stereo unspecified)", "Potency": "inconclusive: 14.6 µM [activator, partial curve, poor fit]"}, {"compound": "Cn1c(OCc2cccnc2)nc2c1c(=O)n(Cc1ccc(Br)cc1)c(=O)n2C", "Potency": "active: 16.4 µM"}, {"compound": "COc1ccc(-c2csc(NC3OC(=O)c4ccccc43)n2)cc1", "note": "(stereo unspecified)", "Potency": "inconclusive: 20.6 µM [activator, partial curve]"}, {"compound": "O=C1C2C3C=CC(C4CC34)C2C(=O)N1/N=C/c1c[nH]c2ccccc12", "note": "(stereo unspecified)", "Potency": "inconclusive: 23.1 µM [activator, partial curve]"}, {"compound": "CCc1ccccc1N(C)S(=O)(=O)c1ccc2[nH]cc(C(=O)N3CCc4ccccc43)c(=O)c2c1", "Potency": "inconclusive: 32.6 µM [inhibitor, single point]"}, {"compound": "CCc1cc2c(=O)c(-c3nc4ccccc4n3C)coc2c(CN2CCCCC2C)c1O", "note": "(stereo unspecified)", "activity change, negative = inhibition": "inactive: -14.8%"}, {"compound": "COc1ccccc1C(=O)N/C(=C\\c1cn(C)c2ccccc12)C(=O)N1CCCC1", "activity change, negative = inhibition": "inactive: 13.9%"}, {"compound": "CS(=O)(=O)c1ccc(NC(=O)CCN2C(=O)NC3(CCCC3)C2=O)cc1", "activity change, negative = inhibition": "inactive: 20.2%"}, {"compound": "CC(C)(C)C(=O)NC(=S)Nc1ccccc1F", "Potency": "inconclusive: 29.1 µM [activator, single point]"}, {"compound": "CCOC(=O)c1ccc(CNC(=O)C2CCCCC2C(=O)OCC(F)(F)F)o1", "note": "(stereo unspecified)", "activity change, negative = inhibition": "inactive: 8.42%"}, {"compound": "COc1ccc(CNCc2cc(C)c(OC)cc2C)c(OC)c1", "Potency": "inconclusive: 20.6 µM [inhibitor, single point]"}, {"compound": "O=C(Nc1ccc2oc(-c3ccc4ccccc4c3)nc2c1)c1ccc2c(c1)OCCO2", "Potency": "inconclusive: 3.66 µM [activator, partial curve]"}, {"compound": "COc1cccc(-n2c(SCc3c(C)noc3C)nnc2-c2cccc(S(=O)(=O)N(C)C)c2)c1", "Potency": "inconclusive: 4.11 µM [inhibitor, full curve]"}, {"compound": "Cc1ccc(C(=O)O/N=C(\\N)c2ccccn2)c(C)c1", "Potency": "inconclusive: 0.0206 µM [activator, full curve, poor fit]"}, {"compound": "COc1ccc2nc(NC(=O)CSc3nnc(C)n3N)sc2c1", "Potency": "inconclusive: 5.17 µM [activator, partial curve]"}, {"compound": "CC[C@]12c3[nH]c4ccccc4c3CCN1C(=O)C(CC(=O)NCCCn1ccnc1)C[C@@H]2C(=O)N1CCN(C(=O)c2ccco2)CC1", "note": "(stereo partly specified)", "activity change, negative = inhibition": "inactive: 26.8%"}, {"compound": "O=C(c1cncc(Br)c1)N1CCc2ccccc2C1", "Potency": "active: 5.8 µM"}, {"compound": "N#Cc1ccc(CSc2nnc(NC(=O)c3ccc4ncsc4c3)s2)cc1", "Potency": "inconclusive: 20.6 µM [activator, partial curve, poor fit]"}, {"compound": "CCc1ccccc1N(C)S(=O)(=O)c1ccc(-c2cc(C)no2)s1", "activity change, negative = inhibition": "inactive: -4.57%"}, {"compound": "Cc1ccc(NC(=O)Cn2nnc(-c3ccccc3NC(=O)c3cccs3)n2)cc1", "Potency": "inconclusive: 1.3 µM [inhibitor, partial curve]"}, {"compound": "CCc1nc(C#N)c(N2CCOCC2)o1", "Potency": "inconclusive: 32.6 µM [activator, partial curve, poor fit]"}, {"compound": "C(=N\\Nc1ncnc2sc3c(c12)CCC3)/c1cccs1", "Potency": "inconclusive: 29.1 µM [inhibitor, single point]"}, {"compound": "C1CCC(c2nn3c(-c4n[nH]c5c4CCC5)nnc3s2)CC1", "Potency": "inconclusive: 29.1 µM [inhibitor, single point]"}, {"compound": "O=c1cc2[nH]c3ccccc3c(=O)n2nc1-c1ccccc1", "Potency": "inconclusive: 16.4 µM [activator, partial curve]"}, {"compound": "O=C(CSCc1ccccc1)Nc1ccc(F)c(F)c1", "Potency": "inconclusive: 18.4 µM [activator, partial curve]"}, {"compound": "Fc1ccc(-n2c(-c3cccs3)nc3nc4ccccc4nc32)cc1", "Potency": "inconclusive: 16.4 µM [inhibitor, partial curve]"}, {"compound": "O=C(CN1CCN(C(=O)c2ccco2)CC1)Nc1ccc2c(c1)OCCO2", "Potency": "inconclusive: 29.1 µM [activator, single point]"}, {"compound": "O=C(c1ccc(N2CCN(C(=O)c3ccc(F)cc3F)CC2)cc1)c1cccc(F)c1", "Potency": "active: 14.6 µM"}, {"compound": "O=C(NCCCN1CCCC1=O)c1cncc(Br)c1", "Potency": "inconclusive: 25.9 µM [inhibitor, single point]"}, {"compound": "CCCc1nnc(NC(=O)c2cn(CC)c3cc(N4CCN(C)CC4)c(F)cc3c2=O)s1", "activity change, negative = inhibition": "inactive: -3.61%"}, {"compound": "CCC(=O)Nc1cccc(C(=O)Nc2nccs2)c1", "Potency": "inconclusive: 23.1 µM [activator, partial curve, poor fit]"}, {"compound": "CSc1ccccc1NC(=O)c1cc2ncc(Br)cn2n1", "Potency": "inconclusive: 2.91 µM [activator, full curve]"}, {"compound": "c1ccc(Cc2nnc(N3CCCCC3)c3ccccc23)cc1", "activity change, negative = inhibition": "inactive: 0%"}, {"compound": "CC(=O)Nc1ccc(NC(=O)CCn2c(=S)oc3ccccc32)cc1", "Potency": "inconclusive: 29.1 µM [activator, single point]"}, {"compound": "O=C(c1cc(-c2ccc3c(c2)OCO3)on1)N1CCN(c2ccccc2)CC1", "Potency": "inconclusive: 2.59 µM [activator, full curve]"}, {"compound": "CCCS(=O)(=O)N1CCCC(C(=O)N2CCC(Cc3ccccc3)CC2)C1", "note": "(stereo unspecified)", "activity change, negative = inhibition": "inactive: -19.2%"}, {"compound": "CCOCCCNC(=S)NCCNc1nc2c(C)cccc2cc1C#N", "Potency": "inconclusive: 20.6 µM [inhibitor, single point]"}, {"compound": "Cc1ccsc1/C=C1/SC(N2CCOCC2)=NC1=O", "Potency": "inconclusive: 20.6 µM [activator, partial curve]"}, {"compound": "CCCCN(CC)S(=O)(=O)c1ccc(C(=O)Nc2nnc(CSC)o2)cc1", "Potency": "inconclusive: 29.1 µM [inhibitor, single point]"}, {"compound": "CCCCCCCC(=O)NC(Nc1ccc(S(N)(=O)=O)cc1)C(Cl)(Cl)Cl", "note": "(stereo unspecified)", "Potency": "inconclusive: 16.4 µM [inhibitor, partial curve, poor fit]"}, {"compound": "CSc1ccccc1OCc1cc(C(=O)NCC(C)(C)N2CCOCC2)no1", "activity change, negative = inhibition": "inactive: -8.18%"}, {"compound": "O=C1NC(c2cccs2)Nc2sc3c(c21)CCCC3", "note": "(stereo unspecified)", "Potency": "inconclusive: 7.31 µM [activator, partial curve]"}, {"compound": "Cn1cc(C(=O)c2ccc(Cl)cc2Cl)cc1C(=O)NN", "activity change, negative = inhibition": "inactive: 0.667%"}, {"compound": "O=C(CSc1nc2c([nH]c3ccccc32)c(=O)n1-c1cccc(Cl)c1)N1CCOCC1", "Potency": "inconclusive: 7.31 µM [inhibitor, partial curve]"}, {"compound": "CC1CCC2(CC1)NC(=O)N(CC(=O)Nc1ccc3c(c1)OCCO3)C2=O", "note": "(stereo unspecified)", "Potency": "inconclusive: 18.3 µM [activator, partial curve]"}, {"compound": "Cc1ccc(Cn2cnc3ccccc32)cc1C", "activity change, negative = inhibition": "inactive: 22.6%"}, {"compound": "COc1ccc(OC)c(C(=O)c2coc3ccc(O)cc23)c1", "activity change, negative = inhibition": "inactive: 11.9%"}, {"compound": "Cc1onc(-c2ccccc2Cl)c1C(=O)NNC(=O)C1CCN(Cc2ccccc2)CC1", "Potency": "inconclusive: 14.6 µM [activator, partial curve, poor fit]"}]}]}
